Experiment [1] concerns the target DEAD box helicase 41 (DDX41) (human (endogenous in K562)) (UniProt Q9UJV9). The experiment is described as follows: co-IP; immunoprecipitation with control IgG or indicated antibodies, Western blotting (Fig. 5b-e); cells not given.
In experiment [2] the target is DDX41-R525H (human (endogenous in K562)) (UniProt Q9UJV9). Description: co-IP; DDX41 WT, KO and KI (R525H, Y259C) K562 cells; immunoprecipitation with rabbit IgG or indicated antibodies, Western blotting (Fig. 5f-k, Supplementary Fig. S8). For orientation: A western blot detects proteins with antibodies after separation by electrophoresis.
For experiment [3], the target named is DEAD box helicase 41 (DDX41) (human (endogenous in K562)) (UniProt Q9UJV9). The experiment is described as above.
Experiment [4] has as its target T1, DDX41-Y259C (human (endogenous in K562)) (UniProt Q9UJV9).
T1 sequence: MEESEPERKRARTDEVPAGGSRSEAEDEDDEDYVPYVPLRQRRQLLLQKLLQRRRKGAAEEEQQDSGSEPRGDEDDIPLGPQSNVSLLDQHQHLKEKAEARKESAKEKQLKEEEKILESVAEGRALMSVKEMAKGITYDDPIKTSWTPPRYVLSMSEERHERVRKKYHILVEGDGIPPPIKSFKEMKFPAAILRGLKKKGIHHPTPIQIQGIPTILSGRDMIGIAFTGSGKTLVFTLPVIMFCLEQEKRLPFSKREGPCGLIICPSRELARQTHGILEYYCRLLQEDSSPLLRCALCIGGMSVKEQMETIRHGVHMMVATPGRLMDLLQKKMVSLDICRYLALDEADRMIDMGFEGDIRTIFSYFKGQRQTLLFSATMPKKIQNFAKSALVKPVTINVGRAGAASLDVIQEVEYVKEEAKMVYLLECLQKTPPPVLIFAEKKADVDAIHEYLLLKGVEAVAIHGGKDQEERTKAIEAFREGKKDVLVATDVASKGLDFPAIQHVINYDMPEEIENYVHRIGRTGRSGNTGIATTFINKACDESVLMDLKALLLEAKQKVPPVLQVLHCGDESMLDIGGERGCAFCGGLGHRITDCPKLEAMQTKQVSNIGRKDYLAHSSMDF
The description is as above.

By UniProt entry, the sequences of proteins in these tests, tags left out.
UniProt Q86U44: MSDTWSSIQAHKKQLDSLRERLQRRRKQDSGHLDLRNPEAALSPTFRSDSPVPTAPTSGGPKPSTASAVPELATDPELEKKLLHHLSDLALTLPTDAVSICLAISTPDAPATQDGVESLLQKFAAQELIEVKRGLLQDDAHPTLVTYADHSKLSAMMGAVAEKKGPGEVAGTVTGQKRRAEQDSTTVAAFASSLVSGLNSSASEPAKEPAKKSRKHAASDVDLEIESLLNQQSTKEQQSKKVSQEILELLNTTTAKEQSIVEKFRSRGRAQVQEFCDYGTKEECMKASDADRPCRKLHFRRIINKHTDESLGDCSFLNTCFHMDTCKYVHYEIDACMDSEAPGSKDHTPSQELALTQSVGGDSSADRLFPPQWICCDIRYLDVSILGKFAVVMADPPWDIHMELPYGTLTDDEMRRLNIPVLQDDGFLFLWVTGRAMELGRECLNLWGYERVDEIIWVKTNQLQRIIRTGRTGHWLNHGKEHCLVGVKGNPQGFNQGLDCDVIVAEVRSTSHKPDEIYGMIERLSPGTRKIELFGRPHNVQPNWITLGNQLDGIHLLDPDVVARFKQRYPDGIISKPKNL

No constants are given. Whether binding was seen depends on the method and setting. Binding seen in cells or lysates may run through a third protein. Some binding calls cover weakened binding; strength is not graded here.

For two molecules, binding results are on record in article PMC11147762.

With METTL3 (from UniProt Q86U44 1-580), the binding result in experiment [1], in experiment [2], in experiment [3] and in experiment [4] was “binds” throughout.

B1: METTL14 (protein, UniProt Q9HCE5 1-456)
chain: MDSRLQEIRERQKLRRQLLAQQLGAESADSIGAVLNSKDEQREIAETRETCRASYDTSAPNAKRKYLDEGETDEDKMEEYKDELEMQQDEENLPYEEEIYKDSSTFLKGTQSLNPHNDYCQHFVDTGHRPQNFIRDVGLADRFEEYPKLRELIRLKDELIAKSNTPPMYLQADIEAFDIRELTPKFDVILLEPPLEEYYRETGITANEKCWTWDDIMKLEIDEIAAPRSFIFLWCGSGEGLDLGRVCLRKWGYRRCEDICWIKTNKNNPGKTKTLDPKAVFQRTKEHCLMGIKGTVKRSTDGDFIHANVDIDLIITEEPEIGNIEKPVEIFHIIEHFCLGRRRLHLFGRDSTIRPGWLTVGPTLTNSNYNAETYASYFSAPNSYLTGCTEEIERLRPKSPPPKSKSDRGGGAPRGGGRGGTSAGRGRERNRSNFRGERGGFRGGRGGAHRGGFPPR
In the case of B1, the binding result in experiment [1] is given as “binds”.
